Positions count from the first letter of the chain named. Names may count otherwise. Results are given in words; binding and its absence hold for the method and conditions named. Some entries that bind do so weakly or less than the wild type.
T1: CAPRIN-1 protein on the cell membrane surface of cancer cells (UniProt Q14444)
T1 sequence (looked up): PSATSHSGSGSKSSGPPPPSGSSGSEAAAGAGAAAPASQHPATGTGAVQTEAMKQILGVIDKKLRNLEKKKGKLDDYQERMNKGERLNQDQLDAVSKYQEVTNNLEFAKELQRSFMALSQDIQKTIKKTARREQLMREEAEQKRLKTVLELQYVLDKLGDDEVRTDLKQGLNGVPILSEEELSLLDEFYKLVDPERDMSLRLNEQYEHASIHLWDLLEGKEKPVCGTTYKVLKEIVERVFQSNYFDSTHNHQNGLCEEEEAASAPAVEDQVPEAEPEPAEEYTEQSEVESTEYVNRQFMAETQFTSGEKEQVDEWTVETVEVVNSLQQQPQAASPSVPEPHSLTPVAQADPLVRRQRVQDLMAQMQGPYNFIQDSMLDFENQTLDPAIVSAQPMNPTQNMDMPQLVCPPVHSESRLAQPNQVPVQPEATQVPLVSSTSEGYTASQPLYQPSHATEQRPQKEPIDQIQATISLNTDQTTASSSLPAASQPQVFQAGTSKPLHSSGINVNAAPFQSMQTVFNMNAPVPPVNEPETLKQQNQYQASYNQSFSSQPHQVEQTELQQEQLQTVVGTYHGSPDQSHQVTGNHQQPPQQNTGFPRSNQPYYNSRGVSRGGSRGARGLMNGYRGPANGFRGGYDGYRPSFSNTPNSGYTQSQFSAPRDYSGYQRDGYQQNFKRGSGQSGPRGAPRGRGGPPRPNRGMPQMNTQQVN

T2: CAPRIN-1 protein (UniProt Q14444)
T2 sequence (looked up): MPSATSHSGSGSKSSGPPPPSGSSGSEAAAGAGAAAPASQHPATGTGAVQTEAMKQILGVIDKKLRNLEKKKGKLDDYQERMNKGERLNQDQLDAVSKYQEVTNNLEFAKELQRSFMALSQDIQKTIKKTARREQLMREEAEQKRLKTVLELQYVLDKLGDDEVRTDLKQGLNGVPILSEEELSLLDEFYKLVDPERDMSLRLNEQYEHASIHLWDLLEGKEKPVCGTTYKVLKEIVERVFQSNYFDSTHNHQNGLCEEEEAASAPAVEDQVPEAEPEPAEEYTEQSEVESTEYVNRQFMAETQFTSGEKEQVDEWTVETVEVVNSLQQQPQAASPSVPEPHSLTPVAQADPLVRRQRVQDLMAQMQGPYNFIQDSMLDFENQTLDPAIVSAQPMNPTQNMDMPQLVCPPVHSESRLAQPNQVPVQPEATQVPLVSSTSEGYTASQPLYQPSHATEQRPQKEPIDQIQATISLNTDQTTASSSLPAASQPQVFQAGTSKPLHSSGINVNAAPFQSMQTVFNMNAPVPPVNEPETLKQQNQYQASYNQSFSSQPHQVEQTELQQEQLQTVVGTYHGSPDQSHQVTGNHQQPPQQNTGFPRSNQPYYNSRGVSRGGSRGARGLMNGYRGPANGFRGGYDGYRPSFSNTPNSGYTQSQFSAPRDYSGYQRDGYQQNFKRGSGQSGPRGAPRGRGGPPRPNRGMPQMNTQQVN

B1: Conjugate 74 (antibody, human IgG1, V domains shown)
VH: EVQLVESGGGLVQPGGSLRLSCAASGFSLSSHSLGWVRQAPGKGLEWIGDIRSGGSAYYANWAKGRFTISRDNSKNTLYLQMNSLRAEDTAVYYCTRTNGPSDLTNRLDLWGQGTLVTVSS
VL: EQVLTQSPSSLSASVGDRVTINCQASQSLYNNENLAWFQQKPGKVPKRLIYGASTLASGVSSRFSGSGSGTEFTLTISNLQPEDFAIYYCLGEFSCGSADCFAFGGGTKVEIK
B2: Conjugate 75 (antibody, human IgG1, V domains shown)
VH: B1 VH with Y94F
VL: B1 VL with Q2I, I87T
B3: Conjugate 76 (antibody, human IgG1, V domains shown)
VH: B1 VH
VL: B1 VL with Q2I, I87T
B4: Conjugate 77 (antibody, human IgG1, V domains shown)
VH: B1 VH with Y94F
VL: B1 VL
B5: Conjugate 78 (antibody, human IgG1, V domains shown)
VH: AVTLDESGGGLQTPGGALSLVCKASGFTFSGYDMLWVRQAPGKGLEWVAGIGSTGGGTDYGAAVKGRATISRDNGQSTVRLQLNNLRAEDTATYYCAKVAGGCNSGYCRDSPGSIDAWGHGTEVIVS
VL: AVTQQPASVSANPGETVKITCSGGGSRNYYGWYQQKSPGSVPVTVIYYDDQRPSNIPSRFSGALSGSTSTLTITGVQADDEAVYFCGSADSNTYEGSFGAGTTLTVL
B6: Conjugate 82 (antibody, human IgG1, V domains shown)
VH: GAELVRSGASVKMSCKASGYSFTDYNMYWVKQTPGQGLEWIGYIYPGNGGTNYNQKFKGKATLTADTSSSTAYMQISSLTSEDSAVYFCARDYDDGGYAMDYWGQGTTVTVSS
VL: DIQMTQSPASLSASVGETVTITCRASGNIHNYLTWYQQKQGKSPQLLVYNAKTLADGVPSRFSGSGSGTQYSLKINRLQPEDFGSYYCQHFWNIPWTFGGGTKLNSR
B7: Conjugate 83 (antibody, human IgG1, V domains shown)
VH: DAELVKPGASVKISCKASGYTFTDHSIHWVQQKPEQGLEWIGYISPGNGNIKYNEKFKGKATLTADKSSSTAYMQLNSLTSEDSAVYFCKRSLGRGGPYYFDYWGQGTTVTVSS
VL: DIVLTQAAPSLPVTPGESVSISCRSSKSLLHSNGNTYLYWFLQRPGQSPQLLIYRMSNLASGVPDRFSGSGSGTAFTLRISRVEAEDVGVYYCMQHREYPVTFGSGPN
B8: Conjugate 88 (antibody, human IgG1, V domains shown)
VH: EVQLHQFGAELVKPGASVKISCKASGYTFTDYNMDWVKQSHGKSLEWIGDINPNYDSTSYNQKFKGKATLTVDKSSSTAYMELRSLTSEDTAVYYCARSRSYDYEGFAYWGQGTLVTVSA
VL: DIQMTQSPASLSASVGETVTITCRASGNIHNYLAWYQQKQGKSPQLLVYNAKTLADGVPSRFSGSGSGTQYSLKINSLQPEDFGSYYCQHFWSTLTFGAGTKLELKR
B9: Conjugate 99 (antibody, human IgG1, V domains shown)
VH: GPDLVKPGASVKISCKASGYSFTAYYMHWVKQSHGKSLEWIGRVNPNNGGTTYNQKFKGKAILTVDKSSSTAYMELRSLTFEDSAVYYCARRIYYGYFDYWGQGTTVTVSS
VL: AFFAVSLGQRATISCKASQSVDYDGDSYMNWYQQKPGQPPKLLIYVASNLESGVPARFSGSGSGTDFTLNIHPVEEEDAATYYCQQSNEDPYTFGGGTKLEIKQ
B10: Conjugate 105 (antibody, human IgG1, V domains shown)
VH: B1 VH
VL: QVLTQSPSSLSASVGDRVTINCQASQSLYNNENLAWFQQKPGKVPKRLIYGASTLASGVSSRFSGSGSGTEFTLTISSLQCEDFAIYYCLGEFSCGSADCFAFGGGTKVEIK
B11: Conjugate 106 (antibody, human IgG1, V domains shown)
VH: B1 VH with Y94F
VL: B10 VL
B12: Conjugate 107 (antibody, human IgG1, V domains shown)
VH: B1 VH
VL: B1 VL
B13: Conjugate 108 (antibody, human IgG1, V domains shown)
VH: B1 VH with Y94F
VL: B1 VL with Q2I, I87T
B14: Conjugate 109 (antibody, human IgG1, V domains shown)
VH: B1 VH
VL: B1 VL with Q2I, I87T
B15: Conjugate 110 (antibody, human IgG1, V domains shown)
VH: B1 VH with Y94F
VL: B1 VL
B16: Conjugate 8 (antibody, human IgG1, V domains shown)
VH: B1 VH with V2Q, Q3S
VL: B10 VL
notes: humanized antibody #2 (human IgG1) + resiquimod, MC-Val-Cit-PAB linker
B17: Conjugate 12 (antibody, human IgG1, V domains shown)
VH: B1 VH with V2Q, Q3S
VL: B10 VL
notes: humanized antibody #6 (V regions of #2; human IgG1 S239D/I332E) + resiquimod, MC-Val-Cit-PAB linker
B18: Conjugate 22 (antibody, human IgG1, V domains shown)
VH: B1 VH with V2Q, Q3S
VL: B10 VL
notes: humanized antibody #2 (human IgG1) + resiquimod derivative, SATA and SMCC linkers
B19: Conjugate 26 (antibody, human IgG1, V domains shown)
VH: B1 VH with V2Q, Q3S
VL: B10 VL
notes: humanized antibody #6 (V regions of #2; human IgG1 S239D/I332E) + resiquimod derivative, SATA and SMCC linkers
B20: Conjugate 30 (antibody, V domains shown)
VH: B1 VH with V2Q, Q3S
VL: B10 VL
notes: mouse chimeric antibody #2 (mouse IgG constant regions) + resiquimod, MC-Val-Cit-PAB linker
B21: Conjugate 34 (antibody, V domains shown)
VH: B1 VH with V2Q, Q3S
VL: B10 VL
notes: mouse chimeric antibody #2 (mouse IgG constant regions) + resiquimod derivative, SATA and SMCC linkers
B22: Conjugate 111 (antibody, human IgG1, V domains shown)
VH: B5 VH
VL: B5 VL
B23: Conjugate 115 (antibody, human IgG1, V domains shown)
VH: B6 VH
VL: B6 VL

Biological target: T1, CAPRIN-1 protein on the cell membrane surface of cancer cells
Test: flow cytometry

**Q.** Which binding does the source give for B1 here?
**A.** binds

**Q.** For B2, which binding is on record?
**A.** binds

**Q.** How did the binding turn out when B3 was run?
**A.** binds

**Q.** How did the binding turn out when B4 was run?
**A.** binds

**Q.** Which binding does the source give for B5 here?
**A.** binds

**Q.** Which binding does the source give for B6 here?
**A.** binds

**Q.** B7 was tested. Which binding did it give?
**A.** binds

**Q.** How did the binding turn out when B8 was run?
**A.** binds

**Q.** With B9 as the binder, how does the binding read?
**A.** binds

**Q.** For B10, which binding is on record?
**A.** binds

**Q.** With B11 as the binder, how does the binding read?
**A.** binds

**Q.** Which binding does the source give for B12 here?
**A.** binds

**Q.** With B13 as the binder, how does the binding read?
**A.** binds

**Q.** With B14 as the binder, how does the binding read?
**A.** binds

**Q.** B15 was tested. Which binding did it give?
**A.** binds

**Q.** Which binding does the source give for B16 here?
**A.** binds

**Q.** With B17 as the binder, how does the binding read?
**A.** binds

**Q.** B18 was tested. Which binding did it give?
**A.** binds

**Q.** With B19 as the binder, how does the binding read?
**A.** binds

**Q.** B20 was tested. Which binding did it give?
**A.** binds

**Q.** How did the binding turn out when B21 was run?
**A.** binds

**Q.** Which binding does the source give for B22 here?
**A.** binds

**Q.** With B23 as the binder, how does the binding read?
**A.** binds

Biological target: T2, CAPRIN-1 protein
Test: ELISA

**Q.** How did the binding turn out when B1 was run?
**A.** binds

**Q.** How did the binding turn out when B2 was run?
**A.** binds

**Q.** Which binding does the source give for B3 here?
**A.** binds

**Q.** How did the binding turn out when B4 was run?
**A.** binds

**Q.** With B5 as the binder, how does the binding read?
**A.** binds

**Q.** Which binding does the source give for B6 here?
**A.** binds

**Q.** B7 was tested. Which binding did it give?
**A.** binds

**Q.** For B8, which binding is on record?
**A.** binds

**Q.** With B9 as the binder, how does the binding read?
**A.** binds

**Q.** B10 was tested. Which binding did it give?
**A.** binds

**Q.** For B11, which binding is on record?
**A.** binds

**Q.** With B12 as the binder, how does the binding read?
**A.** binds

**Q.** B13 was tested. Which binding did it give?
**A.** binds

**Q.** B14 was tested. Which binding did it give?
**A.** binds

**Q.** Which binding does the source give for B15 here?
**A.** binds

**Q.** For B16, which binding is on record?
**A.** binds

**Q.** B17 was tested. Which binding did it give?
**A.** binds

**Q.** With B18 as the binder, how does the binding read?
**A.** binds

**Q.** B19 was tested. Which binding did it give?
**A.** binds

**Q.** With B20 as the binder, how does the binding read?
**A.** binds

**Q.** With B21 as the binder, how does the binding read?
**A.** binds

**Q.** For B22, which binding is on record?
**A.** binds

**Q.** How did the binding turn out when B23 was run?
**A.** binds
